Laboratory results taken from the supplement of paper PMC10338343.
± gives the standard deviation. The entries are a selection whose mix differs from that of the whole data set. Many of these values have a large error.

These sequences were tested on MILI (PIWIL2) piRISC loaded with L1MC piRNA (26 nt) (assay: pre-steady-state target cleavage rate (min^-1); MIWI and MILI are mouse PIWI proteins and EfPiwi is from a freshwater sponge; tags in brackets are library labels; higher = faster piRNA-guided slicing of the target). Conditions: guide: L1MC piRNA 5'p-UAACUAAAUACUAUGCAAGCUGUAGG; auxiliary factor: 500 nM mouse GTSF1.
Outline: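 In this Cleave-'n-Seq assay, uncleaved targets were sequenced and normalised to depth and to weakly complementary targets. They came from a transcribed, DNA-blocked target RNA library […] mixed with 1 nM active affinity-purified piRISC carrying one synthetic guide, with or without 500 nM GTSF1 partner protein, in HEPES–potassium acetate buffer at 33 °C for 0–8 or 0–960 min. After three trials were pooled and k3 was capped at 0.0001 min^-1, the pre-steady-state cleavage rate was obtained from a burst-and-steady-state fit.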
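Also: 1 nM active piRISC with 0.1 nM target library at 33 °C single turnover.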

| Sequence | pre-steady-state target cleavage rate |
| --- | --- |
| UCCUCCUACAGCUUGCAUAGUAUUUAGUUA [g2:g26:cont:t1A] | 0.344 ± 0.02 |
| UCCUGGAUGUCGUUGCAUAGGUAUUUAGUUA | 0.00394 ± 0.0042 |
| UCCUGCAACAGCUUGCAUAGUAUUUAGUAA | 0.333 ± 0.031 |
| UCCUGGAACAGCUUGCAUAGUAUUUAGUUA [g2:g23:cont:t1A] | 0.297 ± 0.019 |
| UCCUGCACAGCUUGCAUAGUAUUUAGUUA | 0.317 ± 0.018 |
| UCCUGGAACAGCUUGCAUAGGUAUUUAGUUA | 0.00331 ± 0.0043 |
| UCCUGCCUACAGCUUGCAUAGUAUUUAGUUA | 0.342 ± 0.022 |

Same assay, conditions: guide: L1MC piRNA 5'p-UAACUAAAUACUAUGCAAGCUGUAGG; auxiliary factor: none (no GTSF1)

| Sequence | pre-steady-state target cleavage rate |
| --- | --- |
| UCCUGGUACAGCUUCCAUAGUUUUUAGUUA | 0.00111 ± 0.013 |
| UCCUGGUACAGGUUGCAUAGUAUUUACUUA | 0.00245 ± 0.0058 |
| UCCUGGAUGUCGAACGUAUCUAUUUAGUUA [g2:g10:cont:t1A] | 0.000156 ± 0.021 |
| UCCUGGAUGAGCUUGGUAAGUAUUUACAAA | 0.00055 ± 0.012 |
| UCCUGGAUGUCCUUGCUAUGUAUUUAGUUA | 0.0016 ± 0.0037 |
| UCCUGGAUCACGAUGCAUAGUAUUUAGAAA | 0.0017 ± 0.0043 |
| UCCUCCUACACCUUGCAUAGAAUUUAGUUA | 0.00087 ± 0.0065 |
| UCCUGGUACAGCUUCGUUAGUAUUUUCAAA | 0.0013 ± 0.0065 |
| UCCUGCUACAGCUUGCAUAUAUUUAGUUA | 0.00226 ± 0.0027 |
| UCCUGGAUCAGCUUGCAUAGUAUAUAGUAA | 0.00237 ± 0.0033 |
| UCCUGGAUGUCCUUGCAUAGUAUAUAGUAA | 0.00119 ± 0.0053 |
| UCCUGGAUCAGGUUCCAUAGUAUUUAGUUA | 0.000437 ± 0.0096 |
| UCCUCCUACAGCUUCGAUAGUAUUUAGUAA | 0.00231 ± 0.0025 |
| UCCUCCUACAGCUUGCAUACUAUUAAGUUA | 0.000939 ± 0.0059 |
| UCCUGGAUCAGCAUGCAUAGUAUUUAGAUA | 0.0028 ± 0.0029 |
| UCCUGGAUGUCGUUGCAUAGUAUUUAUUA | 0.000398 ± 0.015 |
| UCCUGGAUGUCGAAGCAUAGUAUUUAUUUA | 0.000444 ± 0.01 |

Copied from the list:
For pre-steady-state target cleavage rate, UCCUGGUACAGCUUCGUUAGUAUUUUCAAA is entered as 0.0013 ± 0.0065
For pre-steady-state target cleavage rate, UCCUGGAUCAGGUUCCAUAGUAUUUAGUUA is entered as 0.000437 ± 0.0096

(further entries)

| Sequence | pre-steady-state target cleavage rate |
| --- | --- |
| UCCUGGAUGUCCUUGCAUAGUAUUUUCAUA | 0.00114 ± 0.0056 |
| UCCUGGAUCAGCUUGCAUACAUUUUACAAA | 0.000384 ± 0.011 |
| UCCUGGAUGUCGAACCAUUCUAUUUAGUUA | < 0.0001 |
| UCCUGGAUCAGCUACGAUAGUAUUUAGUAA | 0.000438 ± 0.015 |
| UCCUGGAUGUCCAACCAUAGUAUUUAGUAA | < 0.0001 |
| UCCUGGAUGUGCUUCCAUUGUAUUUAGUUA | 0.0011 ± 0.0057 |
| UCCUGGAUCAGCUACGAUAGUAUUUAGUUA | 0.000901 ± 0.0082 |
| UCCUGGAUGUCCUUGCAUAGUAUUUAUUA | 0.00241 ± 0.0037 |
| UCCUGGAUGUCGAUGCAUAGUAUUGUAGUUA | 0.00166 ± 0.0052 |
| UCCUGGUACAGCUUGCAUACAUUUUUCAAA | 0.00135 ± 0.0081 |
| UCCUGGAUGUGCUUGCAUAGUAUUAGUUA | 0.00152 ± 0.0041 |
| UCCUGGAUGUCCUUGCAUAGAAUUUUGUUA | 0.00132 ± 0.0066 |
| UCCUGGAUGUCCUUGCAAACUAUUUAGUUA | 0.00159 ± 0.0035 |
| UCCUGGAUGUCCUUGCAAUCUAUUUAGUUA | 0.00143 ± 0.0037 |
| UCCUGCUACAGCUUGCAUAGUAUUUUCAUA | 0.000937 ± 0.0074 |
| UCCUGGAUGUGGAUGCAUAGUAUUUAGAAA | 0.000922 ± 0.0074 |
